Results are given in words; binding and its absence hold for the method and conditions named. Some entries that bind do so weakly or less than the wild type.
What was measured:
[1] = target: T1, Kif3B (human kinesin-2 motor subunit), full length (human) (UniProt O15066); experiment: mass photometry; complexes diluted to 1–100 nM in buffer A; Refeyn OneMP; both purified
T1 sequence: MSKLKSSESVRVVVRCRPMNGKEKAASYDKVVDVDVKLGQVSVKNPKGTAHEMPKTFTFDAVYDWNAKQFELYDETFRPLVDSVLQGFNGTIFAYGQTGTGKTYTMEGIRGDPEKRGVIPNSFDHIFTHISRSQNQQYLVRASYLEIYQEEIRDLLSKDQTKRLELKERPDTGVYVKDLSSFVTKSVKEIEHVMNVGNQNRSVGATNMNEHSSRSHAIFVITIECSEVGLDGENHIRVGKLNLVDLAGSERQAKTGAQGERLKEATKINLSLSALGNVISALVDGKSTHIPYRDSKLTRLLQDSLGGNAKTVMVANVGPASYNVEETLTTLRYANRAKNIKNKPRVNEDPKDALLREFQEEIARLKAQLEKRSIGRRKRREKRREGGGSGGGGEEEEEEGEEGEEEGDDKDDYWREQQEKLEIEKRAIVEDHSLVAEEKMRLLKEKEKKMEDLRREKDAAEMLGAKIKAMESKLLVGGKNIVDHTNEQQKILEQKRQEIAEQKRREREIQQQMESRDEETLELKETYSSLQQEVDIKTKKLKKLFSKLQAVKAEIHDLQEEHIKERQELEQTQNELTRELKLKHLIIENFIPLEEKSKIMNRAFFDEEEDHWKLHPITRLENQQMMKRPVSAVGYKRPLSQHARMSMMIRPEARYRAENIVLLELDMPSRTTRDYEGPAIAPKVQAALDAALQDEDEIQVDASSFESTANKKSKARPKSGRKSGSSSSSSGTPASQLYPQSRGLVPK

The chains behind the UniProt entries cited, without tags or fusion partners.
UniProt Q9Y496: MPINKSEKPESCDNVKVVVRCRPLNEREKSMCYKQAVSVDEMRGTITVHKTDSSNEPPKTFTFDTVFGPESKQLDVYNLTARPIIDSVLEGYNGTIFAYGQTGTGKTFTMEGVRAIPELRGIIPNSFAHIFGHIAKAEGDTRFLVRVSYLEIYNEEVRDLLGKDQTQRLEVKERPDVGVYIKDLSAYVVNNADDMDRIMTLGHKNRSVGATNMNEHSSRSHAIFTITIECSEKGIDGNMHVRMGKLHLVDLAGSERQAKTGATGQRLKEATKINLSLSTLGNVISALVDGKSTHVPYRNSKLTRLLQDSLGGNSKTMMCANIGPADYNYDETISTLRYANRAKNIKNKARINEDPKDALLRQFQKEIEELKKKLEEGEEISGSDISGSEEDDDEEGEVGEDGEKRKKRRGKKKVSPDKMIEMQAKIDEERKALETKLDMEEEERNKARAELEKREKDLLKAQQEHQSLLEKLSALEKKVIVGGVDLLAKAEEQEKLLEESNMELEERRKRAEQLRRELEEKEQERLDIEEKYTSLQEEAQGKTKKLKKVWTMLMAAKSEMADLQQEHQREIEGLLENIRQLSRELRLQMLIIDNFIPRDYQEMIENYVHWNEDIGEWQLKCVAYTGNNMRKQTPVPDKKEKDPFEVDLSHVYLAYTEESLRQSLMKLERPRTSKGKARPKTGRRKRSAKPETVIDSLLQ

[2] = target: T1, Kif3B (human kinesin-2 motor subunit), full length (human); experiment: SEC; motor subunits coexpressed in Sf9, purified through the ZZ tag of Kif3B/C on IgG Sepharose, TEV elution, Superose 6 Increase 3.2/300 in buffer A (50 mM Tris-HCl pH 7.5, 150 mM K-acetate, 2 mM Mg-acetate, 5% glycerol, 1 mM DTT, 0.2 mM Mg-ATP); SDS-PAGE of peak fraction; both purified
[3] = target: T2, Kif3C (human kinesin-2 motor subunit), full length (human) (UniProt O14782); experiment: as above
T2 sequence: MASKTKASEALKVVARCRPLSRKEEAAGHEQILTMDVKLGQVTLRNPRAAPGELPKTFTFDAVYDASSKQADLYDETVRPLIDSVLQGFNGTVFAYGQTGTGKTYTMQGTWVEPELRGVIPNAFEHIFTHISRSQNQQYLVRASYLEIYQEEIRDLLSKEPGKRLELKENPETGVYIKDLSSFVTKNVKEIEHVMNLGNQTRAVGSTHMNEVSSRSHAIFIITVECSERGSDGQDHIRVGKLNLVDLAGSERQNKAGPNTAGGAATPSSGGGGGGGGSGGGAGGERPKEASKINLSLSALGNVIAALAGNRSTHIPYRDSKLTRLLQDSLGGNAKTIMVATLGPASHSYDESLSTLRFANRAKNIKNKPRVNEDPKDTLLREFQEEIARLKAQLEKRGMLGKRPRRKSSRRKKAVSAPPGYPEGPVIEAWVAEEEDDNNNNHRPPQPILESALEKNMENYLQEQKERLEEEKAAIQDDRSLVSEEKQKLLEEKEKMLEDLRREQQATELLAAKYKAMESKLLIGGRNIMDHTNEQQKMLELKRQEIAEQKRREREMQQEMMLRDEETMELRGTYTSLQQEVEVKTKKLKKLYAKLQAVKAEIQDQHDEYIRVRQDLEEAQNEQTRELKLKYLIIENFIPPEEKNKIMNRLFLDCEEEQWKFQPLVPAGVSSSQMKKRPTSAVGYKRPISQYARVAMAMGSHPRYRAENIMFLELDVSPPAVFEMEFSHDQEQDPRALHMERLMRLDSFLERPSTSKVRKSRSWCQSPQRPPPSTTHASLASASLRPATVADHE

Measured: binding

Kif3A (human kinesin-2 motor subunit), full length (from UniProt Q9Y496 1-699)
binds: all assays above
